Results are given in words; binding and its absence hold for the method and conditions named.
Target: human NFU1, amino acids 59-254, holo form (human) (UniProt Q9UMS0)
Assay: SEC; HiPrep 16/60 Sephacryl HR S-200 in an anaerobic glovebox, 0.5 mL/min; 50 mM HEPES pH 7.5, 250 mM KCl, 10% glycerol, 2.5 mM TCEP, 10 mM BME; holo-LIAS alone (100 uM), holo-NFU1 alone (200 uM) and a 1:1 mixture; masses from a calibration curve; peak fractions checked by SDS-PAGE; both purified

B1: human NFU1, amino acids 59-254, holo form (domain or fragment)
chain: GHMFIQTQDTPNPNSLKFIPGKPVLETRTMDFPTPAAAFRSPLARQLFRIEGVKSVFFGPDFITVTKENEELDWNLLKPDIYATIMDFFASGLPLVTEETPSGEAGSEEDDEVVAMIKELLDTRIRPTVQEDGGDVIYKGFEDGIVQLKLQGSCTSCPSSIITLKNGIQNMLQFYIPEVEGVEQVMDDESDEKEANSP
notes: Gly-His N-terminal appendage left after removal of the His6-SUMO tag; NFU1, human, Q9UMS0 (full length 1-254), N-terminally truncated variant, amino acids 59-254; Holo form with a [4Fe-4S] cluster; also called holo-NFU1; NFUI; source: E. coli BL21 (DE3) with pDB1282, purified under anoxic conditions (Ni-IMAC, SUMO tag removed with ULP1, SEC); not shown: His6, N-terminal, cleaved; SUMO, …
  binding: no binding (tested: 200 μM)
